The text below walks through data of the supplement of paper PMC12067093, “Discovery and optimisation of a covalent ligand for TRIM25 and its application to targeted protein ubiquitination” (Chemical Science, 2025).

Protein sequences, listed by entry. Tags and fused reporters are not part of them. Lines headed by an entry give the natural chain unless they say otherwise; changes in a name come on top.
UniProt Q8NDZ4: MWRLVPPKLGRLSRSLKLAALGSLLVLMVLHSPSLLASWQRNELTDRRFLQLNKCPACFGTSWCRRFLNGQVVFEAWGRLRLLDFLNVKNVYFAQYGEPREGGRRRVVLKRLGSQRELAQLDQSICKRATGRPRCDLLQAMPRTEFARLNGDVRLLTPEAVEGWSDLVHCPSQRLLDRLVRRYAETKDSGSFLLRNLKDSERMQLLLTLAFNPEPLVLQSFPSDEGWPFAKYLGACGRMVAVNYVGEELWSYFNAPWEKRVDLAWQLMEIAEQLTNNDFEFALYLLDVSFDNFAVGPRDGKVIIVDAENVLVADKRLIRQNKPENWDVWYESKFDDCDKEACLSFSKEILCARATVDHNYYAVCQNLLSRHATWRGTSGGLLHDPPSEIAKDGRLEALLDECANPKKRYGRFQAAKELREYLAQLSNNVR
UniProt P27797, whole entry, looked up: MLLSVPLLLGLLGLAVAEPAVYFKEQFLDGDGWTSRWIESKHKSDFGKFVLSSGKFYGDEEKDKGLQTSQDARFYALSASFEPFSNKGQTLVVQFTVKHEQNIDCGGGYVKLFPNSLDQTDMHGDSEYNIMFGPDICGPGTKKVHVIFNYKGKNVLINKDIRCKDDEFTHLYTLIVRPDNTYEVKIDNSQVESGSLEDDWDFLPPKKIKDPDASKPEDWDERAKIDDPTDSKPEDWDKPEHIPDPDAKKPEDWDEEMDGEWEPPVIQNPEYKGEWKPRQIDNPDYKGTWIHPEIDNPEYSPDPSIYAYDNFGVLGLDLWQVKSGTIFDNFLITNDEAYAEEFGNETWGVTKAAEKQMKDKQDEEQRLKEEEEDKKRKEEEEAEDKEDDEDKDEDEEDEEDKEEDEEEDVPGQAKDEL
UniProt O60566, whole entry, looked up: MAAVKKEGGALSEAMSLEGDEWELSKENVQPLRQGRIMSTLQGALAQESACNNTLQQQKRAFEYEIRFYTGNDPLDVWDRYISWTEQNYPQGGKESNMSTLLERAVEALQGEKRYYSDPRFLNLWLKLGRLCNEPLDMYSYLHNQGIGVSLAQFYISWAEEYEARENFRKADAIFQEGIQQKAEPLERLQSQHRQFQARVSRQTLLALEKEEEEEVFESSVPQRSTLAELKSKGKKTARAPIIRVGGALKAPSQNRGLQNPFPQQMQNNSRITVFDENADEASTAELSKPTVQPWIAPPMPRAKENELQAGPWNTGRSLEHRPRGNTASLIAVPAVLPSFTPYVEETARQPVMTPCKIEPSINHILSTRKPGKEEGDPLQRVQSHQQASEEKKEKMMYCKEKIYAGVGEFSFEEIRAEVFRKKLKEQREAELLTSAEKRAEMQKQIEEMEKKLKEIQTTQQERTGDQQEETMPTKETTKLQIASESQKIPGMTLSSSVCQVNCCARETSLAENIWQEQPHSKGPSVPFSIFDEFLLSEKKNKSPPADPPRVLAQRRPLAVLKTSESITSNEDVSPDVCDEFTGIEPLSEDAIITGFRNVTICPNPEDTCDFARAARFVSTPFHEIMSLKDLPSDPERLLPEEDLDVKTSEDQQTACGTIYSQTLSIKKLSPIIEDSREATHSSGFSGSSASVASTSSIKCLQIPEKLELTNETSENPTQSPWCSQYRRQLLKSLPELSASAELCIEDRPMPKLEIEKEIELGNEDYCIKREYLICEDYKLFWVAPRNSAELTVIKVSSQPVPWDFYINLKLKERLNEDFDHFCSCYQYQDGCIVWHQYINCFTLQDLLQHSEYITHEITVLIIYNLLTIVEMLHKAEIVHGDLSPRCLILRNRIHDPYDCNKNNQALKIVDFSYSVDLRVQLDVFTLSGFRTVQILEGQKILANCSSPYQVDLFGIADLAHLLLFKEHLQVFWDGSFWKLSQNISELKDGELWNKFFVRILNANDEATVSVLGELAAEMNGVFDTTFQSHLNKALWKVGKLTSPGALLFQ
UniProt Q9H0E9, whole entry, looked up: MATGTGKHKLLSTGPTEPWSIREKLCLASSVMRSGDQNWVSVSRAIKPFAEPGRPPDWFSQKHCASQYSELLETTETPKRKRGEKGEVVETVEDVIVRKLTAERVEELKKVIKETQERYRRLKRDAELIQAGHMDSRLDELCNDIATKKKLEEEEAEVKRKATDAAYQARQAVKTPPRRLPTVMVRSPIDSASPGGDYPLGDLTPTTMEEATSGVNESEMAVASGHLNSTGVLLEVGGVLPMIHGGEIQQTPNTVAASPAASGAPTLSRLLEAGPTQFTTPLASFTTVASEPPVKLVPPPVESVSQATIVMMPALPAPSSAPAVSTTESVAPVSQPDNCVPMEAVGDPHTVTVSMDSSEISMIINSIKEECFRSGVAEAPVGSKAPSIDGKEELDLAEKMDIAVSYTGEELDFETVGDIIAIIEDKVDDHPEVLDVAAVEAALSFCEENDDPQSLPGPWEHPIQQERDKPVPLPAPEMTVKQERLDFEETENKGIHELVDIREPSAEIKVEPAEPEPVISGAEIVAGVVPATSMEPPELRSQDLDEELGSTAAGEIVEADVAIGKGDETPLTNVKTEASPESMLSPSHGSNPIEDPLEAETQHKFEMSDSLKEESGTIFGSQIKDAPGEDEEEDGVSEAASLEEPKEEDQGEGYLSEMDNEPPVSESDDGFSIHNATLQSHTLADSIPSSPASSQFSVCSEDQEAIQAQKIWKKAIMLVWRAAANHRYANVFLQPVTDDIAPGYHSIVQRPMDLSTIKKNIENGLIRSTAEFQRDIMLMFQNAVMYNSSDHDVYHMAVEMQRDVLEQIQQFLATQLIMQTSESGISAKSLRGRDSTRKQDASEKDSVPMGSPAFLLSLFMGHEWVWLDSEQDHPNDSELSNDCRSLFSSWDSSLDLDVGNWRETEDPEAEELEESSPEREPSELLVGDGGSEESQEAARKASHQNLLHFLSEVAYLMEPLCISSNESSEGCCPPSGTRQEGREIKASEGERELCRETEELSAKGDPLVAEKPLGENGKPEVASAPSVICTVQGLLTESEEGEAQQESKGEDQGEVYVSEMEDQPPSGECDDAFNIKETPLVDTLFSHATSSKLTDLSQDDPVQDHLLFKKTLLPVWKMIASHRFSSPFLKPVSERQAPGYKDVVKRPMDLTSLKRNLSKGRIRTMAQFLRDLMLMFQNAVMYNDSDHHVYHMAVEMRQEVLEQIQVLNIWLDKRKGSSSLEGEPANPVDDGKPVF
UniProt P27708: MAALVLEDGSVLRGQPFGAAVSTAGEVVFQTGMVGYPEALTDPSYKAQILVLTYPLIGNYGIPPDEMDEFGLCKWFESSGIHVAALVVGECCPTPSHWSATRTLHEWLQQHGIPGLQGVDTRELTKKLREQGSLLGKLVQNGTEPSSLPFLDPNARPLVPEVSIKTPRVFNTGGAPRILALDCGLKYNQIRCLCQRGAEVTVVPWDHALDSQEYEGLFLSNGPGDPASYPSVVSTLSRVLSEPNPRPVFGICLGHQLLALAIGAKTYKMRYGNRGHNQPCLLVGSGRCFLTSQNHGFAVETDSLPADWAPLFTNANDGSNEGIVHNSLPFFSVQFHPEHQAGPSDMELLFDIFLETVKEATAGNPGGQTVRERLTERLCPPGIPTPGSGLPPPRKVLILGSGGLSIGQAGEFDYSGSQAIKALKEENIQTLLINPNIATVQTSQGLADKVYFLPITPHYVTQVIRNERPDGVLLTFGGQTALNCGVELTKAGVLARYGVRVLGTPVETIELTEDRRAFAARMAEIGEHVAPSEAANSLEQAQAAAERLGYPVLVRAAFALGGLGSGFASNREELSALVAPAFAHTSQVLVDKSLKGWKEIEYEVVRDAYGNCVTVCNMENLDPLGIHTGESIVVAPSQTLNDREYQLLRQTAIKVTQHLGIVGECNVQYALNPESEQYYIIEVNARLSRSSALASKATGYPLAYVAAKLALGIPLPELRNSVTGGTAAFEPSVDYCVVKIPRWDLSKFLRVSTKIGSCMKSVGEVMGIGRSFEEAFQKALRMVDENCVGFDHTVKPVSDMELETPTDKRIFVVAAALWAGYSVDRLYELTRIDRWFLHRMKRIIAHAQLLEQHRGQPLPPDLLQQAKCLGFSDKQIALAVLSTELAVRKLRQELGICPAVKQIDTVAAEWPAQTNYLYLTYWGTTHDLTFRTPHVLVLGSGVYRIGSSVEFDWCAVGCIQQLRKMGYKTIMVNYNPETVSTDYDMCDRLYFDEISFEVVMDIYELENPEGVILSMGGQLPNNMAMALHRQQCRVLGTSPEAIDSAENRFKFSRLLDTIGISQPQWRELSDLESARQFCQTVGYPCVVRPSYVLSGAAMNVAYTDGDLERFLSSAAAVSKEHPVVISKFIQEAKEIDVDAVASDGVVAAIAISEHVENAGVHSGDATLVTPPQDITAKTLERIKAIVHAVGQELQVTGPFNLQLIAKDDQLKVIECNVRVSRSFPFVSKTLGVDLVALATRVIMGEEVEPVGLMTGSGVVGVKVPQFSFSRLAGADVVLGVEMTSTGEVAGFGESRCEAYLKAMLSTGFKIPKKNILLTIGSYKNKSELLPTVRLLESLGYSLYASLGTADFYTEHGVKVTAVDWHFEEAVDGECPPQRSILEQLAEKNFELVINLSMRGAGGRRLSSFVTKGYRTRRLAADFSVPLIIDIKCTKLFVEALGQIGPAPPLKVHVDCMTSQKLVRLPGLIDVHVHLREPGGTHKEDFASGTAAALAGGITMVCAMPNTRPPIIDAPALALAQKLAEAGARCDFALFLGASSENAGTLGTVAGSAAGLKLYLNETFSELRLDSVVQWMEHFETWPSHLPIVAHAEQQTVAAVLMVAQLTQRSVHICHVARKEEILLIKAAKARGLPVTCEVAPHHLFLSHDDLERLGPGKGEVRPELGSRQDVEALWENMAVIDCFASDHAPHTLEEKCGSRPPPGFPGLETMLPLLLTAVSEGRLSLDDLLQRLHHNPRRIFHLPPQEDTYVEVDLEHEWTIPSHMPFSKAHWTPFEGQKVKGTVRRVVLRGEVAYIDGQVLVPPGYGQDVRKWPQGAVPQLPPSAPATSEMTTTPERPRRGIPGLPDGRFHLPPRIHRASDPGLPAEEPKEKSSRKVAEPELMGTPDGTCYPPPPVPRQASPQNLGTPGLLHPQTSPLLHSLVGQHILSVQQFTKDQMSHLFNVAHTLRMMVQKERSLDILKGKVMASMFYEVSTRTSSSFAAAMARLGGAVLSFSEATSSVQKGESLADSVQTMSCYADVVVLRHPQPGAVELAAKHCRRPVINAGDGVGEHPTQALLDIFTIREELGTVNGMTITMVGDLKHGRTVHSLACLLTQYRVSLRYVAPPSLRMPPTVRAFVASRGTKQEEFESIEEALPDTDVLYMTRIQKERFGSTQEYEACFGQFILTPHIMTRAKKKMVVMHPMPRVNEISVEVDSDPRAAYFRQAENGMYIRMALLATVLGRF

The other results are listed elsewhere or left out.

Compound in this experiment: CC1Cc2ccccc2N1C(=O)C1CCCN(C1)C(=O)CCl (mixture of isomers) [TRIM25 ligand 11 (diastereomer mixture)]
Nature of the experiment: probe-labelled cysteine peptide fold change vs DMSO (competition) (log2 fold change); higher = less target engagement (more negative = stronger competition). To be noted: THP-1, incubation time: 4 h.
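Note: competitive chemoproteomic profiling in live THP-1 cells with an iodoacetamide desthiobiotin (IA-DTB) probe, comparing probe-labelled peptide intensities in compound-treated cells against DMSO-treated controls.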

With “C3orf58_Q8NDZ4_170_LLTPEAVEGWSDLVHCPSQR (UniProt Q8NDZ4)”, the “probe-labelled cysteine peptide fold change” value (10 µM) was -0.218 and the “probe-labelled cysteine peptide fold change” value (50 µM) was 0.0117.
Take “C5orf51_A6NDU8_244_YCADQQPENHEVDTSVSGAGCTTYKEPLDFR (UniProt A6NDU8)”: the “probe-labelled cysteine peptide fold change” value is 0.0461 (10 µM) and -0.233 (50 µM).
As to “CALR_P27797_163_CKDDEFTHLYTLIVRPDNTYEVK (UniProt P27797)”, the “probe-labelled cysteine peptide fold change” value runs as follows: (10 µM) 0.0271; (50 µM) 0.0853.
The corresponding values for “BUB1B_O60566_51_IMSTLQGALAQESACNNTLQQQK (UniProt O60566)” are -0.0291 and -0.087.
For “BRD4_O60885_607_CKPMSYEEK (UniProt O60885)”, the “probe-labelled cysteine peptide fold change” value was -0.147 (10 µM) and -0.0531 (50 µM).
The corresponding values for “CAMK1_Q14012_267_FTCEQALQHPWIAGDTALDK (UniProt Q14012)” are 0.0431 and 0.0321.
For “BRD1_O95696_86_ENSERPPVCLR (UniProt O95696)”, in that order: -0.0962 and -0.3.
On to “CABIN1_Q9Y6J0_717_AVVHLLRPTLCTSGFDR (UniProt Q9Y6J0)”, for which the “probe-labelled cysteine peptide fold change” value reads like this: (10 µM) -0.047; (50 µM) -0.0291.
Turning to “BRD8_Q9H0E9-2_941_CAIEADMK (UniProt Q9H0E9)”, the “probe-labelled cysteine peptide fold change” value (10 µM) is -0.0493 and the “probe-labelled cysteine peptide fold change” value (50 µM) was -0.162.
Turning to “BRD7_Q9NPI1_107_DLQCHAPVR (UniProt Q9NPI1)”, the “probe-labelled cysteine peptide fold change” value was 0.127 (10 µM) and -0.0376 (50 µM).
As for “BUB1_O43683_1013_NEGGECKPEGLFR (UniProt O43683)”, the “probe-labelled cysteine peptide fold change” value by setting is: (10 µM) 0.0232; (50 µM) 0.163.
As for “C5orf51_A6NDU8_268_KYVSVCEGPLK (UniProt A6NDU8)”, the “probe-labelled cysteine peptide fold change” value was -0.0144 (10 µM) and 0.177 (50 µM).
In the case of “CAMK2B_Q13554_116_EYYSEADASHCIQQILEAVLHCHQMGVVHR (UniProt Q13554)”, the “probe-labelled cysteine peptide fold change” value by setting is: (10 µM) -0.000112; (50 µM) -0.229.
For “CAD_P27708_1215_VIECNVR (UniProt P27708)”, in that order: 0.0725 and 0.211.
As to “CAMSAP1_Q5T5Y3_1379_EESCSDSGTK (UniProt Q5T5Y3)”, the “probe-labelled cysteine peptide fold change” value is, setting by setting: (10 µM) 0.111; (50 µM) 0.079.
As to “C3_P01024_662_AELQCPQPAAR (UniProt P01024)”, the “probe-labelled cysteine peptide fold change” value was 0.0947 (10 µM) and -0.137 (50 µM).
For “CAB39_Q9Y376_121_TPTVEYICTQQNILFMLLK (UniProt Q9Y376)”, in that order: -0.289 and 0.386.
For “BTAF1_O14981_1209_FMATQCFATLIR (UniProt O14981)”, the “probe-labelled cysteine peptide fold change” value is, setting by setting: (10 µM) -0.0199; (50 µM) 0.142.
In the case of “C16orf62_Q7Z3J2_321_LTCMIR (UniProt Q7Z3J2)”, the “probe-labelled cysteine peptide fold change” value runs as follows: (10 µM) -0.0976; (50 µM) -0.0998.
For “C15orf39_Q6ZRI6_831_CPFPHVVR (UniProt Q6ZRI6)”, in that order: 0.0287 and 0.0831.
As for “C11orf68_Q9H3H3_263_WHLCPTLYESR (UniProt Q9H3H3)”, the “probe-labelled cysteine peptide fold change” value (10 µM) was -0.0207 and the “probe-labelled cysteine peptide fold change” value (50 µM) came out at 0.1.
“CAMK2D_Q13557_273_HPWICQR (UniProt Q13557)”: the “probe-labelled cysteine peptide fold change” value was -0.213 (10 µM) and -0.0433 (50 µM).
Take “BRD4_O60885_429_LMFSNCYK (UniProt O60885)”: the “probe-labelled cysteine peptide fold change” value is -0.0315 (10 µM) and 0.0408 (50 µM).
As to “C3orf58_Q8NDZ4_402_DGRLEALLDECANPK (UniProt Q8NDZ4)”, the “probe-labelled cysteine peptide fold change” value is -0.0851 (10 µM) and 0.0696 (50 µM).
“C16orf62_Q7Z3J2_214_IVIQCSK (UniProt Q7Z3J2)”: the “probe-labelled cysteine peptide fold change” value (10 µM) is -0.0428 and the “probe-labelled cysteine peptide fold change” value (50 µM) worked out at 0.1.
Consider “CAD_P27708_379_LCPPGIPTPGSGLPPPR (UniProt P27708)”, for which the “probe-labelled cysteine peptide fold change” value is 0.241 (10 µM) and -0.136 (50 µM).
As to “BRF1_Q92994_106_HIHHLGNQLQLNQHCLDTAFNFFK (UniProt Q92994)”, the “probe-labelled cysteine peptide fold change” value is, setting by setting: (10 µM) 0.0361; (50 µM) 0.0853.
Regarding “BST1_Q10588_271_LLQCVDHSTHPDCALK (UniProt Q10588)”, the “probe-labelled cysteine peptide fold change” value reads like this: (10 µM) 0.0745; (50 µM) -0.0297.
As for “CAMKK2_Q96RR4_397_IMCLHSK (UniProt Q96RR4)”, the “probe-labelled cysteine peptide fold change” value was -0.0325 (10 µM) and -0.137 (50 µM).
For the target “BTK_Q06187_502_FQTQQLLEMCK (UniProt Q06187)”, the “probe-labelled cysteine peptide fold change” value runs as follows: (10 µM) -0.00548; (50 µM) 0.191.
The corresponding values for “CAND1_Q86VP6_1153_ATCTTK (UniProt Q86VP6)” are -0.0776 and -0.101.
Regarding “C17orf75_Q9HAS0_182_NNMNCEAR (UniProt Q9HAS0)”, the “probe-labelled cysteine peptide fold change” value by setting is: (10 µM) -0.0675; (50 µM) -0.169.
“CAD_P27708_484_NERPDGVLLTFGGQTALNCGVELTK (UniProt P27708)”: the “probe-labelled cysteine peptide fold change” value was -0.00656 (10 µM) and 0.00784 (50 µM).
For “C6orf106_Q9H6K1_18_FSCLGTTDK (UniProt Q9H6K1)”, in that order: 0.0921 and -0.0712.
Consider “C12orf10_Q9HB07_56_IGTHNGTFHCDEALACALLR (UniProt Q9HB07)”, for which the “probe-labelled cysteine peptide fold change” value reads like this: (10 µM) -0.0316; (50 µM) -0.134.
As for “CAMK2D_Q13557_127_EYYSEADASHCIQQILESVNHCHLNGIVHR (UniProt Q13557)”, the “probe-labelled cysteine peptide fold change” value was 0.0777 (10 µM) and -0.0821 (50 µM).
